Measurements from publication doi:10.1101/2022.03.29.486232.
Results are given in words; binding and its absence hold for the method and conditions named. In cells and extracts the contact can be indirect. These calls come from enrichment with a bait or labelling near it, and not all partners need be listed. Where a sequence is shown, tags or fusion partners need not be part of it.

T1: leucine-rich glioma-inactivated 1 (LGI1), native, from mouse brain (mouse (endogenous in mouse brain)) (UniProt Q9JIA1)
T1 sequence: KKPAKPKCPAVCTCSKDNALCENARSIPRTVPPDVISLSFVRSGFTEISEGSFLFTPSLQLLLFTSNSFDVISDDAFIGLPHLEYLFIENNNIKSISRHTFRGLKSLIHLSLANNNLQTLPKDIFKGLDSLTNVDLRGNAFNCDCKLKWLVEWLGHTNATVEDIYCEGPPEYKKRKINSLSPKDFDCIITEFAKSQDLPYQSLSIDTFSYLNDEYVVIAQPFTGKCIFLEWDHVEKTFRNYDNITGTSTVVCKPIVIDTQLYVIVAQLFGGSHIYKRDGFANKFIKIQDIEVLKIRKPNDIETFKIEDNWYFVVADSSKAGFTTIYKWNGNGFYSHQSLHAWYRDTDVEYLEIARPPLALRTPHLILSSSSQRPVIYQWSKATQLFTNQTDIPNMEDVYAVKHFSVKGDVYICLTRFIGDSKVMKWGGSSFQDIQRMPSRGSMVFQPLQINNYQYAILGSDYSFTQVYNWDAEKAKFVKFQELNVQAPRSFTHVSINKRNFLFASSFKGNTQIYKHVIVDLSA

B1: TAG1 (CNTN2) (protein, UniProt Q61330 31-1014)
chain: QGTPATFGPVFEEQPVGLLFPEESAEDQVTLACRARASPPATYRWKMNGTEMNLEPGSRHQLMGGNLVIMSPTKAQDAGVYQCLASNPVGTVVSKEAVLRFGFLQEFSKEERDPVKTHEGWGVMLPCNPPAHYPGLSYRWLLNEFPNFIPTDGRHFVSQTTGNLYIARTNASDLGNYSCLATSHLDFSTKSVFSKFAQLNLAAEDPRLFAPSIKARFPPETYALVGQQVTLECFAFGNPVPRIKWRKVDGSLSPQWGTAEPTLQIPSVSFEDEGTYECEAENSKGRDTVQGRIIVQAQPEWLKVISDTEADIGSNLRWGCAAAGKPRPMVRWLRNGEPLASQNRVEVLAGDLRFSKLNLEDSGMYQCVAENKHGTIYASAELAVQALAPDFRQNPVRRLIPAARGGEISIPCQPRAAPKATILWSKGTEILGNSTRVTVTLDGTLIIRNISRSDEGKYTCFAENFMGKANSTGILSVRDATKITLAPSSADINVGDNLTLQCHASHDPTMDLTFTWTLDDFPVDFDKPGGHYRRASVKETIGDLTILNAQLRHGGTYTCMAQTVVDGASKEATVLVRGPPGPPGGVVVRDIGDTTVQLSWSRGFDNHSPIAKYTLQARTPPSGKWKQVRTNPVNIEGNAETAQVLGLMPWMDYEFRVSASNILGTGEPSGPSSRIRTKEAVPSVAPSGLSGGGGAPGELTINWTPMSREYQNGDGFGYLLSFRRQGSSSWQTARVPGADTQYFVYSNDSIHPYTPFEVKIRSYNRRGDGPESLTAIVYSAEEEPKVAPAKVWAKGSSSSEMNVSWEPVLQDMNGILLGYEIRYWKAGDKEAAADRVRTAGLDSSARVTGLYPNTKYHVTVRAYNRAGTGPASPSADAMTMKPPPRRPPGNISWTFSSSSLSLKWDPVVPLRNESTVTGYKMLYQNDLQPTPMLHLTSKNWIEIPVPEDIGHALVQIRTTGPGGDGIPAEVHIVRNGGTSMMVES
B2: Caspr2 (CNTNAP2) (protein, UniProt Q9CPW0 28-1332)
chain: APSTFQKCDEPLISGLPHVSFSSSSSLSSSYAPGYAKINKRGGAGGWSPSDSDHYQWLQVDFGNRKQISAIATQGRYSSSDWVTQYRMLYSDTGRNWKPYHQDGNIWAFPGNINSDSVVRHDLQHAVVARYVRIVPLDWNGEGHIGLRAEVYGCAYWADVINFDGHGVLPYRFRNKKMKTLKDVIALKFKTSESEGVLLHGEGQQGDYITLELKKAKLVLSLNLGSNQLGPIYGHTSVTSGSLLDDHHWHSVLIERQGRSINLTLDRSMQHFRTNGEFDYLDLDYEITFGGIPFSGKPSSSNRKNFKGCMESINYNGVNITDLARRKKLGPSNMGNLSFSCVEPYTVPVFFNATSYLEVPGRLNQDLFSVSFQFRTWNPSGLLLFSHFADNLGNVEIDLVESKVGVHINNTQTKTSQIDISSGSGLNDGQWHEVRFLAKENFAVLTIDGDEASAVRTNSPLQVKTGEKYFFGGFLNHMNNASYSALQPSFQGCMQLIQVDDQLVNLYEVAQRKPGSFANVTIDMCAIIDRCVPNHCEHGGKCSQTWDSFKCTCDETGYSGATCHNSIYEPSCEAYKHLGQTSNYYWIDPDGSGPLGPLKVYCNMTEDKVWTIVSHDLQMQTTVVGYNPEKYSVTQLIYSASMDQISAITSSAEYCEQYVSYFCRMSRLLNTPDGSPYTWWVGKANEKHYYWGGSEPGIQKCACGIERNCTDPKYYCNCDADYKQWRKDAGFLSYKDHLPVSQVVVGDTDRQGSEAKLSVGPLRCQGDRNYWNAASFPNPSSYLHFSTFQGETSADISFYFKTLIPRGVFLENLGNTDFIKLELKSATEVSFSFDVGNGPVEIVVRSPSPLNDDQWHRVTAERNVKQASLQVDRLPQQIRKAPTEGHTRLELYSQLFVGGAGGQQGFLGCIRSLRMNGVTLDLEERAKVTSGFKSGCSGHCTSYGANCENGGKCIEKYHGYSCDCSNTAYDGTFCNKDVGAFFEEGMWLRYNFQAPAVTARDTGSRAENSADQQQHLAPDLAQEQIHFSFSTTKAPCILLYVSSLTTDFLAVLVKPTGNLQIRYNLGGTREPFNIDVDHRNMANGQPHSVNITRHERTIILKLDHYPAVGYHLPSSSDTLFNSPKSLFLGKVIETGKIDQEIHKYNTPGFTGCLSRVQFNHIAPLKAALRQTNASAHVHIQGELVESNCGASPLTLSPMSSATDPWHLDHLDSASADFPYNPGQGQAIRNGVNRNSAIIGGVIAVVIFTILCTLVFLIRYMFRHKGTYHTNEAKGAESAESADAAIMNNDPNFTETIDESKKEWLI
B3: ADAM23 (protein, UniProt Q9R1V7 284-829)
chain: AVNPSRGVFEEMKYLELMIVNDHKTYKKHRSSHAHTNNFAKSVVNLVDSIYKEQLNTRVVLVAVETWTEKDHIDITINPVQMLHDFSKYRQRIKQHADAVHLISRVTFHYKRSSLSYFGGVCSRIRGVGVNEYGLPMAVAQVLSQSLAQNLGIQWEPSSRKPKCECIESWGGCIMEETGVSHSRKFSKCSILEYRDFLQRGGGACLFNRPTKLFEPTECGNGYVEAGEECDCGFHVECYGVCCKKCSLSNGAHCSDGPCCNNTSCLFQSRGYECRDAVNSCDITEYCTGDSGQCPPNLHKQDGYSCNQNQGRCYNGECKTRDNQCQYIWGTKAAGSDKFCYEKLNTEGTEKGNCGKDGDRWIPCSKHDVFCGFLLCTNLTRAPRIGQLQGEIIPTSFYHQGRVIDCSGAHVVLDDDTDVGYVEDGTPCGPSMMCLDRKCLQIQALNMSSCPLDSRGKVCSGHGVCSNEATCICDFTWAGTDCSIRDPVRNPNPPKDEGPKGPSATNLIIGSIAGAILVAAIVLGGTGWGFKNVKKRRFDPTQQGPI
B4: Rab3a (protein, UniProt P63011 1-220)
chain: MASATDSRYGQKESSDQNFDYMFKILIIGNSSVGKTSFLFRYADDSFTPAFVSTVGIDFKVKTIYRNDKRIKLQIWDTAGQERYRTITTAYYRGAMGFILMYDITNEESFNAVQDWSTQIKTYSWDNAQVLLVGNKCDMEDERVVSSERGRQLADHLGFEFFEASAKDNINVKQTFERLVDVICEKMSESLDTADPAVTGAKQGPQLTDQQAPPHQDCAC
B5: VAPA (Vesicle-associated membrane protein-associated protein A) (protein, UniProt Q9WV55 1-249)
chain: MASASGAMAKHEQILVLDPPSDLKFKGPFTDVVTTNLKLQNPSDRKVCFKVKTTAPRRYCVRPNSGIIDPGSIVTVSVMLQPFDYDPNEKSKHKFMVQTIFAPPNISDMEAVWKEAKPDELMDSKLRCVFEMPNENDKLNDMEPSKAVPLNASKQDGPLPKPHSVSLNDTETRKLMEECKRLQGEMMKLSEENRHLRDEGLRLRKVAHSDKPGSTSAVSFRDNVTSPLPSLLVVIAAIFIGFFLGKFIL
B6: doublecortin-like kinase 1 (DCLK1) (enzyme, UniProt Q9JLM8 1-756)
chain: MSFGRDMELEHFDERDKAQRYSRGSRVNGLPSPTHSAHCSFYRTRTLQTLSSEKKAKKVRFYRNGDRYFKGIVYAISPDRFRSFEALLADLTRTLSDNVNLPQGVRTIYTIDGLKKISSLDQLVEGESYVCGSIEPFKKLEYTKNVNPNWSVNVKTTSASRAVSSLATAKGGPSEVRENKDFIRPKLVTIIRSGVKPRKAVRILLNKKTAHSFEQVLTDITDAIKLDSGVVKRLYTLDGKQVMCLQDFFGDDDIFIACGPEKFRYQDDFLLDESECRVVKSTSYTKIASASRRGTTKSPGPSRRSKSPASTSSVNGTPGSQLSTPRSGKSPSPSPTSPGSLRKQRISQHGGSSTSLSSTKVCSSMDENDGPGEGDELGRRHSLQRGWRREESEEGFQIPATITERYKVGRTIGDGNFAVVKECIERSTAREYALKIIKKSKCRGKEHMIQNEVSILRRVKHPNIVLLIEEMDVPTELYLVMELVKGGDLFDAITSTSKYTERDASGMLYNLASAIKYLHSLNIVHRDIKPENLLVYEHQDGSKSLKLGDFGLATIVDGPLYTVCGTPTYVAPEIIAETGYGLKVDIWAAGVITYILLCGFPPFRGSGDDQEVLFDQILMGQVDFPSPYWDNVSDSAKELINMMLLVNVDQRFSAVQVLEHPWVNDDGLPENEHQLSVAGKIKKHFNTGPKPSSTAAGVSVIATTALDKERQVFRRRRNQDVRSRYKAQPAPPELNSESEDYSPSSSETVRSPNSPF
B7: ADP/ATP translocase 2 (ADT2 / SLC25A5) (protein, UniProt P51881 1-298)
chain: MTDAAVSFAKDFLAGGVAAAISKTAVAPIERVKLLLQVQHASKQITADKQYKGIIDCVVRIPKEQGVLSFWRGNLANVIRYFPTQALNFAFKDKYKQIFLGGVDKRTQFWRYFAGNLASGGAAGATSLCFVYPLDFARTRLAADVGKAGAEREFKGLGDCLVKIYKSDGIKGLYQGFNVSVQGIIIYRAAYFGIYDTAKGMLPDPKNTHIFISWMIAQSVTAVAGLTSYPFDTVRRRMMMQSGRKGTDIMYTGTLDCWRKIARDEGSKAFFKGAWSNVLRGMGGAFVLVLYDEIKKYT
B8: CN37 (2’,3’-cyclic-nucleotide 3’-phosphodiesterase) (enzyme, UniProt P16330 1-420)
chain: MNTSFTRKSHTFLPKLFFRKMSSSGAKEKPELQFPFLQDEDTVATLHECKTLFILRGLPGSGKSTLARLILEKYHDGTKMVSADAYKIIPGSRADFSEAYKRLDEDLAGYCRRDIRVLVLDDTNHERERLDQLFEMADQYQYQVVLVEPKTAWRLDCAQLKEKNQWQLSADDLKKLKPGLEKDFLPLYFGWFLTKKSSETLRKAGQVFLEELGNHKAFKKELRHFISGDEPKEKLELVSYFGKRPPGVLHCTTKFCDYGKAAGAEEYAQQEVVKRSYGKAFKLSISALFVTPKTAGAQVVLTDQELQLWPSDLDKPSASEGLPPGSRAHVTLGCAADVQPVQTGLDLLDILQQVKGGSQGEAVGELPRGKLYSLGKGRWMLSLTKKMEVKAIFTGYYGKGKPVPIHGSRKGGAMQICTII

The binders below were run against T1, leucine-rich glioma-inactivated 1 (LGI1), native, from mouse brain (mouse (endogenous in mouse brain)) (assay: affinity purification with mass spectrometry).
B1 was tested, and the binding was “binds”. B2 was tested, and the binding was “binds”. For B3, the binding was “binds”. For B4, the binding was “binds”. With B5 the binding was “binds”. B6 was tested, and the binding was “binds”. For B7, the binding was “binds”. For B8, the binding was “binds”.
